# According to PubChem BioAssay AID2685 (National Center for Advancing Translational Sciences (NCATS), 2010):
# The campaign covered roughly 320,000 compounds. About 2,100 (0.66%) were called active. The inconclusive results got no clear call from the source; some entries with a clear call stand among them for comparison. The call rests on the fitted dose curve; in most records, active means well fitted inhibition curve with a large enough effect in the signal ratio, with a control signal flat (not every such curve was filed as active); inconclusive means small, poorly fitted or top-dose-only effect, or effect the other way, or a change in a side signal; inactive means flat fitted curve, though single readings scatter; the % refers to the signal ratio. Potencies of inconclusive entries are doubtful fits and often do not repeat.
# Assay: qHTS Assay for Lipid Storage Modulators in Drosophila S3 Cells
# Conditions: BODIPY lipid droplet fluorescence, 18-24 h, cells fed with added oleic acid; lipid storage change, negative = inhibition: at 46.1 µM (top of the series) unless noted
# How it was run: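 Laser-scanning cytometry quantifies lipid droplet accumulation (500–530 nm total intensity; droplet/cell object ratio) in oleic acid-fed (400 uM added) Drosophila S3 cells treated with a concentration series. 20 uM Triacsin C defined 100% inhibition.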
# On the % scale 0 is the no-effect control and ±100 the full control effect; potency means the concentration at half of the fitted maximal effect.
SMILES,Potency,"lipid storage change, negative = inhibition"
Cn1c(NC(=O)c2cc(Br)ccc2Cl)cc(=O)n(C)c1=O,"inconclusive: 0.731 µM [rising, partial curve]",–
COc1ccc2cc(C(C)=O)c(=O)oc2c1,"inconclusive: 25.9 µM [activator, single point]",–
Cc1ccc2nc(SCC(=O)NCc3ccccc3Cl)nc(=O)n2c1,–,inconclusive: 24.5%
O=[N+]([O-])c1ccc(Nc2ccc(F)cc2)cc1,"inconclusive: 29.1 µM [falling, single point]",–
Cc1ccc(CN2C(=O)CSC2c2ccccc2F)cc1 (stereo not given),–,inconclusive: -3.23%
CCOc1ccccc1NC(=O)c1ccccc1-c1nc(-c2ccccc2OC)no1,–,inconclusive: 18.5%
Cc1n[nH]c(C)c1S(=O)(=O)N1CCN(S(=O)(=O)c2cccc(F)c2)CC1,–,inconclusive
Cc1cccc(C)c1NC(=S)/N=C/N(C)C,–,inconclusive: -18.2%
Nc1nc(SCc2ccccc2)[nH]c(=O)c1-c1ccccc1,"inconclusive: 0.0231 µM [falling, full curve, poor fit]",–
COc1ccc(-c2noc(N3CCC(C(=O)Nc4ccc(F)cc4)CC3)n2)cc1,"inconclusive: 29.1 µM [falling, single point]",–
CCc1c(C)c(C#N)c2nc3ccccc3n2c1Nc1c(C)n(C)n(-c2ccccc2)c1=O,–,inconclusive: -13.4%
COC(=O)c1cc(C)nc(Sc2ccccc2N)n1,–,inconclusive: -15.9%
Cc1c(NC(=O)COC(=O)c2cc3c4ccccc4n(C)c3s2)c(=O)n(-c2ccccc2)n1C,"inconclusive: 29.1 µM [activator, partial curve, poor fit]",–
CN(C)c1nnnn1-c1ccc(Cl)cc1,–,inconclusive: -54.4%
O=C(Nc1nnc(S(=O)(=O)N2CCCCC2)s1)c1cccc(Br)c1,–,inconclusive: -21.4%
COc1ccc(-c2noc(CSc3nc4ccccc4c(=O)n3-c3ccc(C)cc3)n2)cc1,–,inactive
COc1ccc(S(=O)(=O)NCC2(N3CCOCC3)CCCCC2)cc1OC,–,inconclusive
COCC(C)n1c(C)cc(C(=O)CN2c3cccc4cccc(c34)S2(=O)=O)c1C (stereo not given),"inconclusive: 32.6 µM [falling, single point]",–
Cc1ccc(C(=O)C2=C(O)C(=O)N(CCCN(C)C)C23C(=O)N(C)c2ccccc23)o1 (stereo not given),–,inconclusive: -13.8%
COc1ccc(OC(=O)c2ccc3nsnc3c2)cc1,–,inconclusive: -3.86%
CCCCN(CC(=O)NCc1ccc(F)cc1)C(=O)c1ccco1,–,inconclusive: -82.8%
COc1ccc(Nc2nc(N)c3ccccc3n2)c(OC)c1,–,inconclusive: 10.3%
O=C(Nc1ccc2nc(-c3cccnc3)[nH]c2c1)C12CC3CC(CC(C3)C1)C2,–,inconclusive: -17.8%
NCCCC[C@H]1CNC(=O)C(=O)N1CCCCC1CCCCC1,–,inconclusive: -23.2%
COc1ccc(OCc2cc(C(=O)N3CCOCC3)no2)c(Cl)c1,–,inconclusive: -16.3%

# Complete entries, quoted from the list.
# Cc1cccc(C)c1NC(=S)/N=C/N(C)C as listed: lipid storage change, negative = inhibition: inconclusive: -18.2%
# COc1ccc(OC(=O)c2ccc3nsnc3c2)cc1 as listed: lipid storage change, negative = inhibition: inconclusive: -3.86%

# The listing continues.

SMILES,Potency,"lipid storage change, negative = inhibition"
CN(C)c1ccc(NC(=O)c2ccc([N+](=O)[O-])cc2Cl)cc1,–,inconclusive: 4.95%
COc1c(C)cc(C(=O)C2CCCN(C(=O)CCc3scnc3C)C2)cc1C (stereo not given),"inconclusive: 18.4 µM [cytotoxic, partial curve]",–
CC(C)(C)c1ccc(C(=O)Nc2ccc(NC(=O)c3ccco3)cc2)cc1,–,inconclusive: -20.6%
O=c1cc(-c2ccc([N+](=O)[O-])cc2)nc2cc(-c3ccc(Cl)cc3)[nH]n12,"inconclusive: 0.82 µM [falling, full curve, poor fit]",–
CCOc1ccc(CN2CCC(C(=O)Nc3cccc(-c4ccn[nH]4)c3)CC2)cc1Cl,–,inconclusive: 19.8%
Cc1noc(C)c1CSc1nnc(-c2cc(Cl)ccc2Cl)n1N,–,inconclusive: 26.2%
COc1ccc(NC(=O)C2CC2)cc1-n1cnnn1,–,inconclusive: 46.7%
CCN(CC)c1ccc(NC(=O)c2ccc(Cl)nc2)cc1,"inconclusive: 2.31 µM [falling, partial curve]",–
CCCOc1ccc(CC(=O)N/N=C\c2ccc(F)cc2)cc1,–,inconclusive: 7.95%
Cc1ccc(S(=O)(=O)NCc2cccnc2)cc1C(=O)NC1CCCCC1,–,inconclusive: 33.4%
CCCCC(OC(=O)c1ccco1)C(=O)NCc1ccc(C)cc1 (stereo not given),"inconclusive: 2.06 µM [falling, full curve]",–
Fc1ccccc1-c1n[nH]c(=S)n1C1CC1,–,inconclusive: -15.9%
O=C(CCCC(=O)OCC(=O)c1ccc(F)cc1)Nc1cc(C(F)(F)F)ccc1Cl,"inconclusive: 25.9 µM [falling, single point]",–
CC(=O)c1ccc(Nc2cc(C)nc3ncnn23)cc1,–,inconclusive: -12.7%
CN(C)c1ccc(C2=NOC(CN3C(=O)c4ccccc4S3(=O)=O)C2)cc1 (stereo not given),–,inconclusive: 29.3%
COc1ccc(C(=O)NCCNc2ccc([N+](=O)[O-])cc2)cc1,–,inconclusive: -95.9% [cytotoxic] [at 0.00295 µM]
Cc1ccc(NC(=O)CS(=O)CC(=O)N(CC(=O)NC(C)(C)C)c2cccc(C)c2C)cc1 (stereo not given),–,inactive
Cc1ccc(C)c(N2CCN(CC(=O)Nc3ccc([N+](=O)[O-])cc3C(=O)Nc3ccccc3F)CC2)c1,–,inconclusive: -34.1%
Cc1ccc(C(=O)NC(=S)NCc2cccnc2)c(C)c1,–,inconclusive: 4.16%
Cc1cccc(NC(=O)CN2C(=O)COc3ccc(Cl)cc32)c1C,–,inconclusive: 4.55% [at 9.22 µM]
COCCNC(=O)CSc1nc2nc(C)cc(C)n2n1,–,inconclusive: 6.84%
Cn1c(=O)[nH]c(=O)c2c1nc(SCC(O)CO)n2CCCc1ccccc1 (stereo not given),"inconclusive: 0.291 µM [falling, partial curve, poor fit]",–
CC(C)Cn1c(CCCNC(=O)c2ccc(F)cc2)nc2ccccc21,–,inconclusive: 38.9%
S=C(NCCc1ccccc1)NCC(c1ccco1)N1CCCCC1 (stereo not given),–,inconclusive: -45.6% [at 0.00295 µM]
COC(=O)C1=C(C)NC(=O)C1(Nc1nccs1)C(F)(F)F (stereo not given),–,inconclusive: -22.3%

# Entries above with a tert-butyl group, in the order listed:
SMILES,Potency,"lipid storage change, negative = inhibition"
CC(C)(C)c1ccc(C(=O)Nc2ccc(NC(=O)c3ccco3)cc2)cc1,–,inconclusive: -20.6%
Cc1ccc(NC(=O)CS(=O)CC(=O)N(CC(=O)NC(C)(C)C)c2cccc(C)c2C)cc1 (stereo not given),–,inactive
